# Library screening results

Sequences of proteins named here, by UniProt entry; tags and fusion partners are left off.
UniProt E9BF75, entry or part of it: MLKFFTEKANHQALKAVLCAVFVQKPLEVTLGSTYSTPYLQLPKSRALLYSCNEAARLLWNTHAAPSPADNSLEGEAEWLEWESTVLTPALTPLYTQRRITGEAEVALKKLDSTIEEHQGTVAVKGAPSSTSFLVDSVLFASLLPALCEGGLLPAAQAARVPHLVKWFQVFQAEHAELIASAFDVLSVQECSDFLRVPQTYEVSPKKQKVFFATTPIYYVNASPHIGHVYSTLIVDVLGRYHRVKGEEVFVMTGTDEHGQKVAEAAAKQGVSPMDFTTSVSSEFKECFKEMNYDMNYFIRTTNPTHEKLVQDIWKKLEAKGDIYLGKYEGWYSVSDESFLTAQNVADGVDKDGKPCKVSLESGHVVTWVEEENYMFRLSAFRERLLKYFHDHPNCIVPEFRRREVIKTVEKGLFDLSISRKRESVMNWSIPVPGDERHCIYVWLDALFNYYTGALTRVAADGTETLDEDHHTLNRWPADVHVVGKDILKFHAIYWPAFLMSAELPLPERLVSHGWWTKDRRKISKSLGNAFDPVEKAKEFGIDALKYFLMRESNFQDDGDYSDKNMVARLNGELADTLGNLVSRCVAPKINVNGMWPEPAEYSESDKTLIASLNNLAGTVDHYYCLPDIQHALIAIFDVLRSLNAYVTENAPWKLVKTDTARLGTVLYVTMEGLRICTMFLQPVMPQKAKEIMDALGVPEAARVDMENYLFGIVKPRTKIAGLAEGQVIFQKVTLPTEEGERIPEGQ

LdMetRS: 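Methionyl-tRNA synthetase (putative), Leishmania donovani (UniProt E9BF75). Primary screen of methionyl-tRNA synthetase; the read-out is not stated. The test concentration is not given. The values are filed as inhibition. Of about 68,000 compounds tested this way, about 24 (0.035%) reached 50% or more in at least one test.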
Mtb heat-shock: 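Assay on Mycobacterium tuberculosis, filed only as a heat shock assay from Cornell; the read-out is not stated. The concentration is filed as 10 mM, unlikely as a test dose, so the dose is not known. The record gives no direction; compounds that gave an IC50 in retests scored well above the rest, so higher reads as stronger inhibition. About 69,000 compounds were tested under these conditions; 1.4% (about 930) showed 50% or more at least once.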

All values are in %.
The controls that fix the scale are not given in the record; negative values are as filed.
This is an unselected part of the compounds tested.

Result for CCOc1cc(C)nc(N2CCN(C(=O)c3ccc[nH]3)CC2)n1 was LdMetRS: 11.75%; Mtb heat-shock: 41.96%.
Result for Fc1ccc2c(c1)nc1n2[C@@H](CNCc2nccs2)COC1 was LdMetRS: 8.795%; Mtb heat-shock: -10.01%.
Result for CCOc1ccc(C#N)cc1NCc1cc(C)on1 was LdMetRS: 12.81%; Mtb heat-shock: -13.25%.
Result for Cc1cc(N[C@H]2CCCN(Cc3ccccc3)C2)n2nc(C)cc2n1 was LdMetRS: 15.32%; Mtb heat-shock: 37.52%.
Result for Cc1noc(C)c1CN1CCc2ncnc(-c3cnn(C)c3)c2CC1 was LdMetRS: 17.57%.
Result for Cc1ncsc1C(=O)NC1CCN(Cc2ccc(C#N)cc2)CC1 was LdMetRS: 9.312%; Mtb heat-shock: 22.75%.
Result for N#Cc1ccc(OCC(O)CN2CCC(Cn3cccn3)CC2)cc1 (stereo unspecified) was LdMetRS: 21.31%; Mtb heat-shock: -7.549%.
Result for CC(C)CCN(C)C(=O)c1cc(CN2CCC(O)CC2)on1 was LdMetRS: 9.067%; Mtb heat-shock: 38.18%.
Result for [H][C@@]12CCN(C(=O)c3cnccn3)C[C@@]1([H])O[C@H](c1ccncn1)C2 was Mtb heat-shock: -25.64%.
Result for Cc1cc(C(F)(F)F)nc(CCNC(C)Cn2cncn2)n1 (stereo unspecified) was LdMetRS: 8.065%; Mtb heat-shock: 16.73%.
Result for Cl.O=C(NC1CCCC1)c1ccnc(C2CCNCC2)c1 was Mtb heat-shock: -6.855%.
Result for COCCNc1ccc(CNC(=O)Nc2cn[nH]c2)cc1 was LdMetRS: 8.92%; Mtb heat-shock: 17.58%.
Result for COCCN1CCN(C)C2(CCN(C(=O)c3ccnnc3)CC2)C1=O was LdMetRS: -1.038%.
Result for [H][C@]12CCN(C(=O)c3cnoc3C)[C@@]1([H])CCC(=O)N2CC1CC1 was Mtb heat-shock: 1.424%.
Result for COCC(=O)N1CCC(Cc2nccnc2-c2c(C)n[nH]c2C)C1 (stereo unspecified) was LdMetRS: 10.73%; Mtb heat-shock: -16.54%.
Result for Cn1cccc1C(=O)N1C[C@H]2CN(Cc3cccnc3)C[C@H]2C1 was LdMetRS: 11.76%.
Result for CN(C)c1nc2c(c(=O)[nH]1)CCN(C(=O)c1c[nH]c(=O)c(Cl)c1)C2 was LdMetRS: 4.872%; Mtb heat-shock: -8.118%.
Result for Cc1cccc(N2CC3(CCN(C(=O)NC(C)C)C3)CC2=O)c1 (stereo unspecified) was LdMetRS: 1.307%; Mtb heat-shock: -18.03%.
Result for CC(Cn1cccn1)NC(=O)NCc1cccs1 (stereo unspecified) was LdMetRS: 16.78%; Mtb heat-shock: -8.374%.
Result for COC(=O)CC1CCCCN1CC(=O)NCCc1ccc(F)cc1 (stereo unspecified) was LdMetRS: 16.51%; Mtb heat-shock: 6.767%.
Result for Cc1cc(N2CCCC(O)CC2)n2nc(C)c(C)c2n1 (stereo unspecified) was LdMetRS: -2.128%; Mtb heat-shock: -18.93%.
Result for O=C1N(Cc2ccc(F)c(F)c2)CCCC12CCN(C1CCCCC1)C2 (stereo unspecified) was LdMetRS: 20.55%; Mtb heat-shock: 88.26%.
Result for Cc1cc(C)c2[nH]c(=O)c(CN3CCCC4(C3)CN(C)C(=O)O4)cc2c1 (stereo unspecified) was LdMetRS: 19.22%; Mtb heat-shock: 29.93%.
Result for Cc1ccc(-c2nc(CC(=O)NCC(C)N3CCOCC3)cs2)o1 (stereo unspecified) was LdMetRS: 10.57%; Mtb heat-shock: 14.11%.
Result for CCc1c(C)nn(C)c1NC(=O)N1CCCOC(Cn2cccn2)C1 (stereo unspecified) was LdMetRS: 18.37%; Mtb heat-shock: -5.155%.
Result for Cc1ncoc1C(=O)N1CCOC(CC2CCCCC2)C1 (stereo unspecified) was LdMetRS: 8.393%; Mtb heat-shock: 1.389%.
Result for CNC(=O)NC(C)c1nc(-c2ccccc2)c[nH]1 (stereo unspecified) was LdMetRS: 9.399%; Mtb heat-shock: -32.64%.
Result for CN(CCCc1nccn1C)C(=O)C1CCN(C(=O)C2CC2)CC1 was LdMetRS: 11.18%; Mtb heat-shock: 5.735%.

The first 3 entries again:

compound,LdMetRS,Mtb heat-shock
CCOc1cc(C)nc(N2CCN(C(=O)c3ccc[nH]3)CC2)n1,11.75,41.96
Fc1ccc2c(c1)nc1n2[C@@H](CNCc2nccs2)COC1,8.795,-10.01
CCOc1ccc(C#N)cc1NCc1cc(C)on1,12.81,-13.25

The values are deposited in ChEMBL (CHEMBL3988442, “University of Dundee, Small-Polar-MMV Screening Library” (2021)).